Experimental data: US20070185028A1, “Compositions and methods for treatment of protein misfolding and protein aggregation diseases” (priority 2004, published 2007)
Some entries share one result that the patent states for a list of compounds. Some ranges recur; such a range may be that of the whole group of compounds.

Columns and labels:
Assay type in all cases: biochemical
[1] = target: T1, Aβ1-42 (Homo sapiens, UniProt P05067); experiment: Aβ1-42 fibril formation ThT fluorescence assay; settings: 30 μM inhibitor (1:1); 30 μM Aβ1-42; 48 hrs
T1 construct: Aβ1-42 (American Peptide); purchased American Peptide
Method: The effect of five synthesized αB crystallin peptides STSLSPFYLRPPSFLRAP (ST), DRFSVNLDVKHFS (DR), HGKHEERQDE (HG), LTITSSLSSDGV (LT), and ERTIPITRE (ER) on Aβ1-42 fibrillation was measured using the ThT fluorescence assay (FIG. 1). The formation and inhibition of Aβ1-42 fibrils was qualitatively verified by fluorescence and bright-field microscopy. The concentration and stoichometry of the peptides was varied relative to Aβ1-42 to establish a concentration curve. In addition, the effect of two known inhibitors of Aβ1-42 fibrillation (APS and NAP) and a control neuropeptide (AT1) with no fibril inhibition activity was measured and compared to the effect of the αB crystallin peptides on Aβ1-42 fibrillation. The ThT fluorescence of 30 μM Aβ1-42 alone incubated at 37° C. for 48 hrs increased from ˜350,000 to ˜450,000 RFU. […] In contrast, 6 μM DR, LT, and […] had no effect on Aβ1-42 fibril formation. […] Increasing the concentration of the DR peptide to 30 μM decreased the ThT fluorescence by approximately 50%. […] However, when the concentrations of the LT and ER peptides were increased to 150 μM, a 60-100% decrease in ThT fluorescence was measured. […] The negative control peptide AT1 had no effect on Aβ1-42 fibril formation even at a concentration as high as 300 μM.
The Thioflavin T (ThT) fluorescence of Aβ1-42 in the presence of varying concentrations of αB crystallin peptides and controls was measured. […] Addition of 6 μM DR, LT, and ER had no effect on the ThT fluorescence of Aβ1-42. When the concentration of the peptides was increased to 30 μM (1:1::peptide:Aβ1-42), the αB crystallin peptides ST, DR, HG decreased the ThT fluorescence by 50-100%. At the same concentrations, APS and NAP decreased the ThT fluorescence by 30-100%. When the concentration of the peptides was increased further to 150 μM ([…]), four of the five αB crystallin peptides DR, HG, LT, and ER decreased the ThT fluorescence by 58-100%. At the same concentrations, APS and NAP decreased the fluorescence by 28-100%. […] The formation and inhibition of Aβ fibrils was verified microscopically.
Thioflavin T (ThT) Assays. The effect of the five αB crystallin peptides (ST, DR, HG, LT, and ER) on Aβ1-42 fibril formation was measured using the ThT fluorescence assay (44-47) and compared with two known inhibitors of Aβ1-42 fibril formation (Tramiprosate and NAP)(34, 36) and a negative control neuropeptide Angiotensin 1 (AT1). Thioflavin T is a fluorescent dye that has a high affinity for amyloid fibrils and becomes fluorescent (excitation λ=450 nm, emission λ=486 nm) when bound to fibrils. For the Aβ1-42 assays, peptides and APS were dissolved to 2 mM in 0.25% DMSO and diluted accordingly, while Aβ1-42 was dissolved in 20 mM Tris-Cl, pH 7.40, and 100 mM NaCl. For the 5:1::inhibitor:Aβ1-42 assay, 10 μL of 450 μM peptide or APS was mixed with 10 μL of 90 μM Aβ1-42), 7 μL 20 mM Tris-Cl, 100 mM NaCl, pH 7.4 and 3 μL of 1 mM ThT. For the 1:1::inhibitor:Aβ1-42 assay, 10 μL of 90 μM peptide or APS was mixed with 10 μL of 90 μM Aβ(1-42), 7 μL 20 mM Tris-Cl, 100 mM NaCl, pH 7.4 and 3 μL of 1 mM ThT. For the 1:5::inhibitor:Aβ1-42 assay, 10 μL of 18 μM peptide or APS was mixed with 10 μL of 90 μM Aβ(1-42), 7 μL 20 mM Tris-Cl, 100 mM NaCl, pH 7.4 and 3 μL of 1 mM ThT. ThT fluorescence in relative fluorescence units (RFU) was measured using a Perkin Elmer Victor^3 V plate reader. Assays were performed in 384-well fluorescence plates in duplicates or triplicates. Samples were incubated at 37° C. for a total of 48 hours. ThT fluorescence was measured at 0, 24, and 48 hours. The effect of the peptides and APS was calculated as percentage fibril formation relative to Aβ1-42 alone (100%) at the end of 48 hours.

[2] = target: T2, transthyretin (TTR) (Homo sapiens, UniProt P02766); experiment: Transthyretin fibrillation ThT assay
T2 construct: purchased Sigma-Aldrich
Method: The effect of the five αB crystallin peptides ST, DR, HG, LT, and ER on TTR fibrillation was measured using the ThT fluorescence assay (FIG. 26). The formation and inhibition of TTR fibrils was qualitatively verified by fluorescence and bright-field microscopy. The concentration of the peptides was varied relative to TTR to establish a concentration curve. In addition, the effect of a control neuropeptide (AT1) with no TTR fibril inhibition activity was measured and compared to the effect of the αB crystallin peptides on TTR fibril formation. The ThT fluorescence of 16 μM TTR alone incubated at 37° C. for 4 hrs, increased from ˜15,000 to ˜45,000 RFU. Addition of 3.2 μM αB crystallin peptides, ST, DR, LT, and HG decreased the ThT fluorescence of TTR by 15-70%. In contrast, 3.2 μM ER had no effect on TTR fibril formation. Increasing the concentration of the ER peptide to 16 μM decreased the ThT fluorescence of TTR by 60%. The negative control peptide AT1 had no effect on TTR fibrillation even at a concentration as high as 160 μM. All five αB crystallin peptides inhibited TTR fibrillation at sub-stoichometric and stoichometric concentrations (3.2 μM and 16 μM).
The Thioflavin T (ThT) fluorescence of TTR in the presence of varying concentrations of αB crystallin peptides and controls was measured. […] When the concentration of the peptides was increased to 16 μM (1:1::peptide:TTR), the αB crystallin peptides ST, DR, HG, LT and ER decreased the ThT fluorescence by 8-72%. When the concentration of the peptides was increased further to 80 μM ([…]), all of the five αB crystallin peptides ST, DR, HG, LT, and ER decreased the ThT fluorescence by 40-70%. […] The formation and inhibition of TTR fibrils was verified microscopically.
Transthyretin fibrillation ThT assays were performed as described previously. Hurshman et al., Biochemistry 43:7365-81, 2004; O'Nuallain and Wetzel, Proc Natl Acad Sci USA 99:1485-90, 2002. Peptides were dissolved to 2 mM in 0.25% DMSO and diluted accordingly, while TTR was dissolved in 200 mM KCl, 2 mM EDTA, 5 mM PBS, 200 mM sodium acetate, pH 4.4. For the 5::peptide:TTR assay, 10 μL of 160 μM peptide was mixed with 10 μL of 32 μM TTR, and 1 μL of 1 mM ThT. For the 1:1::peptide:TTR assay, 10 μL of 32 μM peptide was mixed with 10 μL of 32 μM TTR and 1 μL of 1 mM ThT. For the 1:5::peptide:TTR assay, 10 μL of 6.4 μM peptide was mixed with 10 μL of 32 μM TTR and 1 μL of 1 mM ThT. ThT fluorescence was measured using a Perkin Elmer Victor^3 V plate reader. Assays were performed in 384-well fluorescence plates in duplicates or triplicates. Samples were incubated at 37° C. ThT fluorescence was measured continuously for 150 minutes. The effect of the peptides and APS was calculated as percentage fibril formation relative to TTR alone (100%) at the end of 150 minutes.

[3] = target: T3, β2-microglobulin (β2m) (Homo sapiens, UniProt P61769); experiment: β2-microglobulin fibrillation ThT assay; settings: 5.8 μM truncated peptide; 29 μM β2m; after 48 hrs
T3 construct: purchased MP Biomedical
Method: Addition of 5.8 μM αB crystallin peptides, ST, DR, LT, HG, and ER decreased the ThT fluorescence of β2m by 40-64%. When the concentration of the αB crystallin peptides was increased to 29 μM and 145 μM, no further decrease in ThT fluorescence was observed. The negative control peptide AT1 had no effect on β2m fibrillation even at a concentration as high as 290 μM. All five αB crystallin peptides inhibited β2m fibrillation at sub-stoichometric and stoichometric concentrations (5.8 μM and 29 μM).
The Thioflavin T (ThT) fluorescence of β2m in the presence of varying concentrations of αB crystallin peptides and controls was measured. […] When the concentration of the peptides was increased to 29 μM (1:1::peptide:β2m), the αB crystallin peptides decreased the ThT fluorescence by 35-65%. When the concentration of the peptides was increased further to 145 μM ([…]), the αB crystallin peptides decreased the ThT fluorescence by 13-27%. […] The formation and inhibition of β2-microglobulin fibrils was verified microscopically.
β2-microglobulin fibrillation ThT assays were performed as described previously. Raman et al., Biochem J 392:573-81, 2005; Ivanova et al., Proc Natl Acad Sci USA 101:10584-9, 2004. Peptides were dissolved to 2 mM in 0.25% DMSO and diluted accordingly, while β2-microglobulin was dissolved in 25 mM sodium acetate, 25 mM sodium phosphate, pH 2.4. For the 5:1::peptide:β2-microglobulin assay, 10 μL of 430 μM peptide was mixed with 10 μL of 86 μM β2-microglobulin, 7 μl of 25 mM sodium acetate, 25 mM sodium phosphate, pH 2.4 and 3 μL of 1 mM ThT. For the 1:1::peptide:β2-microglobulin assay, 10 μL of 86 μM peptide was mixed with 10 μL of 86 μM (2-microglobulin, 7 μl of 25 mM sodium acetate, 25 mM sodium phosphate, pH 2.4 and 3 μL of 1 mM ThT. For the 1:5::peptide:β2-microglobulin assay, 10 μL of 17.2 μM peptide was mixed with 10 μL of 86 μM β2-microglobulin, 7 μl of 25 mM sodium acetate, 25 mM sodium phosphate, pH 2.4 and 3 μL of 1 mM ThT. ThT fluorescence was measured using a Perkin Elmer Victor^3 V plate reader. Assays were performed in 384-well fluorescence plates in duplicates or triplicates. Samples were incubated at 37° C. ThT fluorescence was measured continuously for 180 minutes. The effect of the peptides and APS was calculated as percentage fibril formation relative to β2-microglobulin alone (100%) at the end of 180 minutes.

[4] = target: T4, CS (Sus scrofa, UniProt P00889); experiment: Chaperone assay, thermal aggregation of CS at 50° C.; settings: 10:1 molar ratio of peptide:CS, sixty minutes, 340 nm
T4 sequence (P00889 28-464): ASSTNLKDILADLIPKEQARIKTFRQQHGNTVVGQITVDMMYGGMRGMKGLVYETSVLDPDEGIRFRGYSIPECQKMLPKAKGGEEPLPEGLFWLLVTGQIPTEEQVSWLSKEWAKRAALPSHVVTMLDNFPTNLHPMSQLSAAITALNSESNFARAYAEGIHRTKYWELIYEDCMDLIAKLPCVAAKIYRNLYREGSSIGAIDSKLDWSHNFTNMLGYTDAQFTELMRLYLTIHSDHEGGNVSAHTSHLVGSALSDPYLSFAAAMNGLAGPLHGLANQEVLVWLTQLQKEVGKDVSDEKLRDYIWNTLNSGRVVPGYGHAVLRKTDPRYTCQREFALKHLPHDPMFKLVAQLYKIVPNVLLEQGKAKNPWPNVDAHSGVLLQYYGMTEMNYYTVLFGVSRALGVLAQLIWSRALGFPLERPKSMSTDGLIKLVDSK
Method: The chaperone activity of the peptides was measured as their ability to protect against the thermal aggregation of three chaperone target proteins βH crystallin, ADH and CS in chaperone assays performed at 50° C. (FIG. 19). A non-interactive αB crystallin sequence 111HGKHEERQDE120 was used as the negative control in the chaperone assays (FIG. 19). Based on near and far UVCD, the three target proteins unfolded in the order: CS>>>ADH>>βH crystallin when they were heated at 50° C. for sixty minutes (FIGS. 15 and 16). The thermal aggregation of βH crystallin, ADH and CS was measured as light scattering at λ=340 nm in the presence and absence of each peptide. The chaperone activity of each peptide was calculated as percent protection in which the aggregation of each target protein in the absence of any peptides was set at 0% protection (FIG. 19). The interactive peptides […] and 131LTITSSLSDGV141 were effective inhibitors of aggregation of all three chaperone target proteins.
A (top left): thermal aggregation of chaperone target proteins βH crystallin, ADH and CS in the absence of peptides was measured as light scattering at λ=340 nm. […] The chaperone activity of each peptide was calculated as percent protection in which the aggregation of each target protein in the absence of any peptides was set at 0% protection. […]

[5] = 3.2 μM truncated peptide, after 48 hrs
[6] = 16 μM truncated peptide (1:1::peptide:TTR)

decrease in ThT fluorescence of Aβ1-42 [1] | decrease in ThT fluorescence of TTR, HG derived peptides [2, 5] | decrease in ThT fluorescence of TTR, HG derived peptides [2, 6] | decrease in ThT fluorescence of β2m, HG derived peptides [3] | percent protection against thermal aggregation of CS [4] | Molecule
30-100% | – | – | – | – | NCCCS(=O)(=O)O [APS, 3-aminopropanesulfonic acid, reference compound]
– | 44-95% | – | 44-100% | – | KHEERQDE [Peptide 52]

More lines, now with the values behind:

Molecule | decrease in ThT fluorescence of Aβ1-42 [1] | decrease in ThT fluorescence of TTR, HG derived peptides [2, 5] | decrease in ThT fluorescence of TTR, HG derived peptides [2, 6] | decrease in ThT fluorescence of β2m, HG derived peptides [3] | percent protection against thermal aggregation of CS [4]
EERQDE | – | 44-95% | 54-96% | 44-100% | –
HEER | – | 44-95% | 54-96% | 44-100% | –
LTITSSLSDGV | – | – | – | – | greater than 70%
